Measurements taken from patent US11529424B2, “Synthetic bioconjugates” (Symic Holdings, Inc., priority 2017, dated 2022).
No constants are given. Whether binding was seen depends on the method and setting. Binding can be weak; no strength is given.

What was measured:
[1] = target: Collagen Type I; assay: Collagen Type I coated plate assay, streptavidin-HRP, A450
[2] = target: Collagen Type I; assay: Collagen Type I adsorbed on high-bind plate, streptavidin-HRP/TMB, absorbance at 450 nm; EC50 given as ratio to the reference Compound 10 (Example 6)

GQLYKSILYGSG [… (Peptide X), binding domain without spacer]
binding [1]: binds | binding [2]: binds

GSGSGSRR [Spacer A]
binding [2]: binds

WREPSFSALSGSGSGSRR [… (vWF-2× with GSGSGSRR spacer)]
binding [1]: binds | binding [2]: binds

WREPSFSALS [… (vWF-2×)]
binding [1]: binds | binding [2]: binds
